Source: paper PMC12819326
Results are given in words; binding and its absence hold for the method and conditions named. Binding seen in cells or lysates may run through a third protein. Some entries that bind do so weakly or less than the wild type. One block for each binder: values may come before it.

Biological target: T1, ASC (mouse (endogenous in MPC-5)), Q9EPB4
T1 chain: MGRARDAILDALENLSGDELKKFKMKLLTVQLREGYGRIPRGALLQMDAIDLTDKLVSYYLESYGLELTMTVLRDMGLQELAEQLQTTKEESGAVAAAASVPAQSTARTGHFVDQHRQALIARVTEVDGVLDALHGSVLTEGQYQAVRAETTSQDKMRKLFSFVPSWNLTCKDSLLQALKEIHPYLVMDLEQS
Experiment: co-IP; lysates of MPC-5 podocytes stimulated with immune complexes (ICs), with or without low-dose Hyperoside; immunoprecipitated with anti-ASC antibody, immunoblotting for the partner; input and IgG as controls
Conditions: remark: other sources report otherwise

binding: binds
B1: caspase-8, O89110 1-480 (protein)
chain: MDFQSCLYAIAEELGSEDLAALKFLCLDYIPHKKQETIEDAQKLFLRLREKGMLEEGNLSFLKELLFHISRWDLLVNFLDCNREEMVRELRDPDNAQISPYRVMLFKLSEEVSELELRSFKFLLNNEIPKCKLEDDLSLLEIFVEMEKRTMLAENNLETLKSICDQVNKSLLGKIEDYERSSTERRMSLEGREELPPSVLDEMSLKMAELCDSPREQDSESRTSDKVYQMKNKPRGYCLIINNHDFSKAREDITQLRKMKDRKGTDCDKEALSKTFKELHFEIVSYDDCTANEIHEILEGYQSADHKNKDCFICCILSHGDKGVVYGTDGKEASIYDLTSYFTGSKCPSLSGKPKIFFIQACQGSNFQKGVPDEAGFEQQNHTLEVDSSSHKNYIPDEADFLLGMATVKNCVSYRDPVNGTWYIQSLCQSLRERCPQGDDILSILTGVNYDVSNKDDRRNKGKQMPQPTFTLRKKLFFPP

binding: binds
B2: RIPK3, Q9QZL0 1-486 (protein)
chain: MSSVKLWPTGASAVPLVSREELKKLEFVGKGGFGVVFRAHHRTWNHDVAVKIVNSKKISWEVKAMVNLRNENVLLLLGVTEDLQWDFVSGQALVTRFMENGSLAGLLQPECPRPWPLLCRLLQEVVLGMCYLHSLNPPLLHRDLKPSNILLDPELHAKLADFGLSTFQGGSQSGSGSGSGSRDSGGTLAYLDPELLFDVNLKASKASDVYSFGILVWAVLAGREAELVDKTSLIRETVCDRQSRPPLTELPPGSPETPGLEKLKELMIHCWGSQSENRPSFQDCEPKTNEVYNLVKDKVDAAVSEVKHYLSQHRSSGRNLSAREPSQRGTEMDCPRETMVSKMLDRLHLEEPSGPVPGKCPERQAQDTSVGPATPARTSSDPVAGTPQIPHTLPFRGTTPGPVFTETPGPHPQRNQGDGRHGTPWYPWTPPNPMTGPPALVFNNCSEVQIGNYNSLVAPPRTTASSSAKYDQAQFGRGRGWQPFHK
